Assay results: paper PMC6952976
No constants are given. Whether binding was seen depends on the method and setting. In cells and extracts the contact can be indirect. Some results given as binding are weak or reduced against the parent protein; the word gives no strength.

By UniProt entry, the sequences of proteins in these tests, tags left out.
UniProt P42930: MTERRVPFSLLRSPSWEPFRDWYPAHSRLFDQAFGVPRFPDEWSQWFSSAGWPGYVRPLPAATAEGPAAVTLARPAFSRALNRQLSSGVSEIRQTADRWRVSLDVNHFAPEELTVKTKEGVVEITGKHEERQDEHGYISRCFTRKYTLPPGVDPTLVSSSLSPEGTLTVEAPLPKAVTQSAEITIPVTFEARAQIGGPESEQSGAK

Target: T1, adenine nucleotide translocase 1 (rat (endogenous in neonatal rat cardiomyocytes)) (UniProt Q05962)
T1 sequence: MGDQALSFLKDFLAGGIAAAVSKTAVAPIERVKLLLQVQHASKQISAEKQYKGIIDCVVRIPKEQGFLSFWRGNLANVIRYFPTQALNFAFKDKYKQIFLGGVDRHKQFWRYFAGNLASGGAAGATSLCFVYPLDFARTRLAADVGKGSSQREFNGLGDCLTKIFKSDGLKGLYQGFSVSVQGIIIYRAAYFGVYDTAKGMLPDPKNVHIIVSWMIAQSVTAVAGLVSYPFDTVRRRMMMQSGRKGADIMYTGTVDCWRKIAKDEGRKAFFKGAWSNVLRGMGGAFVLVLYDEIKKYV
Assay: co-IP; ANT-specific antibody (Santa Cruz) and protein A/G agarose on lysates of normoxic WT or ANT1-TG neonatal rat cardiomyocytes; IP buffer 25 mM Tris-HCl, 600 mM NaCl, pH 7.2; Western blot with ANT1- and HSP27-specific antibodies; unspecific IgGs as negative control

- binding: binds
Substance: heat shock protein 27 (from UniProt P42930 1-206)
